Test results published in the supplement of paper PMC10849652.
Some of the results follow.

The chains behind the UniProt entries cited, without tags or fusion partners. Where a name states a change or a piece, a line headed by the entry shows the natural chain unless it says otherwise.
UniProt Q14542: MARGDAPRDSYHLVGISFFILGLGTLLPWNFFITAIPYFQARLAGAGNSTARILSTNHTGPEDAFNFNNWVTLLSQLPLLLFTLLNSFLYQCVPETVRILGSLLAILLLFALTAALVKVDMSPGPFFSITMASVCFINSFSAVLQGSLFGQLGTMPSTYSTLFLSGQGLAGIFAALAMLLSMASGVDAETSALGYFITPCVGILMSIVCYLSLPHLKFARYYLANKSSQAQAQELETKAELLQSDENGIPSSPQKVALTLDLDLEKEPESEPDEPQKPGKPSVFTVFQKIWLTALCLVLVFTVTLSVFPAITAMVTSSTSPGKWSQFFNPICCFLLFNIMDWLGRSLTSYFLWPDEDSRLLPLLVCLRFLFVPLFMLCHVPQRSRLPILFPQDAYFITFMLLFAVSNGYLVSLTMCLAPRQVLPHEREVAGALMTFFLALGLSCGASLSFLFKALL
UniProt Q96K37: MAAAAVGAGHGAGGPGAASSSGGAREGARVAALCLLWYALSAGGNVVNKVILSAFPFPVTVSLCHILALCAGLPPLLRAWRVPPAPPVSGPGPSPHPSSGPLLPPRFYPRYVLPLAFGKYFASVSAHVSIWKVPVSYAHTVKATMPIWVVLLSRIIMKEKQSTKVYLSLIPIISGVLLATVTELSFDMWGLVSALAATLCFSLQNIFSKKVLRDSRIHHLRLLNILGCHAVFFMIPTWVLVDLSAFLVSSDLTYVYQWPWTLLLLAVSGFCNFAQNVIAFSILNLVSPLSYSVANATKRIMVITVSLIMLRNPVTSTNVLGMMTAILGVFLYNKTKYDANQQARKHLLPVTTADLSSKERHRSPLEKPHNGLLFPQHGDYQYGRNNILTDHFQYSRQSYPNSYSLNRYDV
UniProt P48029: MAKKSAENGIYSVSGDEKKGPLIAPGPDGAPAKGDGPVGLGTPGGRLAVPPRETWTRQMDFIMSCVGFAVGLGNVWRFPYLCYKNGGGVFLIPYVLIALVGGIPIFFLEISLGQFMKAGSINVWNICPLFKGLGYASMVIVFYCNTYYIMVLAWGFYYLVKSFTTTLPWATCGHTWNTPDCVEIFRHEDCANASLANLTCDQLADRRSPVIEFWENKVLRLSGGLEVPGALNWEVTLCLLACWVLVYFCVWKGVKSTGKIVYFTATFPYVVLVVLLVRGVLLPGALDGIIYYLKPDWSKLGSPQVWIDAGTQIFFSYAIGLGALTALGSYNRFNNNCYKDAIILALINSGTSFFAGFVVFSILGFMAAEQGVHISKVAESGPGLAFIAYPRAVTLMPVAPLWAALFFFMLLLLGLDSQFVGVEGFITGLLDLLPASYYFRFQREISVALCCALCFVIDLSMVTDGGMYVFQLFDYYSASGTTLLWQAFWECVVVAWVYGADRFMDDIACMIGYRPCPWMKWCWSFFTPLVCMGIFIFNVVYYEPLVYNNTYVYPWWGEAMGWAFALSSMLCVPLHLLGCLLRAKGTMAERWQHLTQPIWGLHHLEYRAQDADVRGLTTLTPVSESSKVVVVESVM
UniProt Q9Y6M7: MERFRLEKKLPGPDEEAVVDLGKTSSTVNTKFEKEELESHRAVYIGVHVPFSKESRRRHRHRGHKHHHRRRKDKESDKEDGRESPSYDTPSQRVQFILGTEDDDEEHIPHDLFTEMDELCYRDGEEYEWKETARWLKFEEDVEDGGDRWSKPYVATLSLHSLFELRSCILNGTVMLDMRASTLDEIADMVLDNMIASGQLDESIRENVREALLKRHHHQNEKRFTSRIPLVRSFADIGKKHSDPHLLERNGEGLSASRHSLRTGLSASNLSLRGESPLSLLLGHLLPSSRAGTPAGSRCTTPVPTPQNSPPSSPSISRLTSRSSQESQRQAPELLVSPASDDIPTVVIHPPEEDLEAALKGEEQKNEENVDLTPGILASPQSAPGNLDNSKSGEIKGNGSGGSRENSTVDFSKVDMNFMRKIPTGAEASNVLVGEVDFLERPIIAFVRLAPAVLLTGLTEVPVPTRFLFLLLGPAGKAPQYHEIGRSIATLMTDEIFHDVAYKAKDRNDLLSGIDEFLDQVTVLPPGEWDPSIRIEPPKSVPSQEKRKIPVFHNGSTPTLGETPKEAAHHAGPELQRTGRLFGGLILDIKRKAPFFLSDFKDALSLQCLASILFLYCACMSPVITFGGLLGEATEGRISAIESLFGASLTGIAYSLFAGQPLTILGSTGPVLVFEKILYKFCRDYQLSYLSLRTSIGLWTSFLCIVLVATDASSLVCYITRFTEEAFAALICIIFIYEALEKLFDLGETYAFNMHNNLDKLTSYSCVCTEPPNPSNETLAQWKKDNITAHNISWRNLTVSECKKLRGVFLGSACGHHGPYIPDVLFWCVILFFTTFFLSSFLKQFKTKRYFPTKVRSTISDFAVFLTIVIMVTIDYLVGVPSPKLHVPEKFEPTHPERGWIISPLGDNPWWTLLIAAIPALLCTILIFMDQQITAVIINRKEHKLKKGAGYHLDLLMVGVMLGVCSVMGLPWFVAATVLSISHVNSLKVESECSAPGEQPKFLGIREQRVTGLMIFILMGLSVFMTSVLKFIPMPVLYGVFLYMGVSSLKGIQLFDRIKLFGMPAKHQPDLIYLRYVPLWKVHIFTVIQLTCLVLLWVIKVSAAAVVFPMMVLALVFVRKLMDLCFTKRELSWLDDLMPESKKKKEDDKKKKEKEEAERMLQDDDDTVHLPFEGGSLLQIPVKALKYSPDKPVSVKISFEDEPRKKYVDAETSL
UniProt Q02978: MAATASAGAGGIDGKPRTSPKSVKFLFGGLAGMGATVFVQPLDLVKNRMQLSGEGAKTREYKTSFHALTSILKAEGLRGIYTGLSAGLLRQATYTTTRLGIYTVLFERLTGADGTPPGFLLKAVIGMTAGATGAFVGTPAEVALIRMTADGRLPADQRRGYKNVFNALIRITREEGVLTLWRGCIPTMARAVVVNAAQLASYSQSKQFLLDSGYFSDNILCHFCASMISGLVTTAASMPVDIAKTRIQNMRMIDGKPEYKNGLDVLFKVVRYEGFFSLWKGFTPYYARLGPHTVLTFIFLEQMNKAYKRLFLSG
UniProt O14975, whole entry, looked up: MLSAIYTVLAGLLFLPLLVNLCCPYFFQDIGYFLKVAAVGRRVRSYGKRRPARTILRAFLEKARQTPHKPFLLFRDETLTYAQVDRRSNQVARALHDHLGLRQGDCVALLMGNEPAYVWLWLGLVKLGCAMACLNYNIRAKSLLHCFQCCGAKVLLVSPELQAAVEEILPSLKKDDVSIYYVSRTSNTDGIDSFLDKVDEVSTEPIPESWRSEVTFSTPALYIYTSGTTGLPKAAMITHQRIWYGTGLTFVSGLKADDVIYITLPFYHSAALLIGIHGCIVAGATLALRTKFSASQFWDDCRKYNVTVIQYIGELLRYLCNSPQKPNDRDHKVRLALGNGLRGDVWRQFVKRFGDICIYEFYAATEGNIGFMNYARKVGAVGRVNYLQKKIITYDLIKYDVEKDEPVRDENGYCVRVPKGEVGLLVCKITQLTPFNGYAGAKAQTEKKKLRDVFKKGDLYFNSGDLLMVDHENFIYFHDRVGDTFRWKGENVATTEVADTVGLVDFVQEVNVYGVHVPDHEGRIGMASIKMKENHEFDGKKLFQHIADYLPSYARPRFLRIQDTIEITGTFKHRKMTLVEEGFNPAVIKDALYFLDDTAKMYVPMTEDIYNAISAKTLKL
UniProt Q9H2D1: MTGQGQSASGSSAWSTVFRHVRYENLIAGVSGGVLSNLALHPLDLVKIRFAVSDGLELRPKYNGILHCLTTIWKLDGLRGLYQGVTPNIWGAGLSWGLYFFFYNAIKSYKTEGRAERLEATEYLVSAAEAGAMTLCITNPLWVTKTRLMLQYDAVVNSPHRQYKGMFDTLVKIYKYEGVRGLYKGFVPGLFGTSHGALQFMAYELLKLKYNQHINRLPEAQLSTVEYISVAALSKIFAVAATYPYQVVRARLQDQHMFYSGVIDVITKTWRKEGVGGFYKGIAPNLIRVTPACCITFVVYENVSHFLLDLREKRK
UniProt Q8TBP6: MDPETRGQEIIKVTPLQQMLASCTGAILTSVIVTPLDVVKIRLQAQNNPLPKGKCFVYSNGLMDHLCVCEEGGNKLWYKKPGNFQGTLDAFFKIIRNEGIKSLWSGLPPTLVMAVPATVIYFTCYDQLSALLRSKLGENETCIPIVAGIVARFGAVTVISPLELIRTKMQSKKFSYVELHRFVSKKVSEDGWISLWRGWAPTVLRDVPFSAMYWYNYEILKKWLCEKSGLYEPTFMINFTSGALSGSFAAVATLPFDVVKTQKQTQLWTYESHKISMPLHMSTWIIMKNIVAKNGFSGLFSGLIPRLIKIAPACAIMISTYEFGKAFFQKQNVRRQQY

Assays:
Assay in all cases: log2 fold change, soluble protein after heating vs DMSO (PISA); higher = thermal stabilisation; K562 cells, 10 uM, 30 min; active = over 0.2 and 3.5 SD of the protein, either way, in both replicates (recomputed)
[1] = compound: CC[C@@H]1C(=O)N(C)c2cnc(Nc3ccc(C(=O)NC4CCN(C)CC4)cc3OC)nc2N1C1CCCC1
How it was run: (§1)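 Quantification of soluble protein used TMTpro 16plex LC-MS/MS, with channel sums equalised. Samples were the supernatant after 21,000xg for 90 min of pooled aliquots from K562 cells (2×10^6 cells/mL) treated with 10 μM compound for 30 min, heated for 3 min over 48°C-58°C, and extracted in PBS with 0.5% NP-40 at 4°C. Values, from duplicates, describe thermal stability against control samples on a log2 fold-change scale.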

[2] = compound: CC[C@@H]1C(=O)N(C)c2cnc(Nc3ccc(C(=O)N[C@H]4CC[C@H](N5CCN(CC6CC6)CC5)CC4)cc3OC)nc2N1C(C)C [volasertib]
How it was run: as §1

[3] = compound: CC[C@H](C)N1C=C(C2=C(C=C(C=C21)C3=CN=C(C=C3)N4CCNCC4)C(=O)NCC5=C(C=C(NC5=O)C)C)C
How it was run: as §1

[4] = compound: CC[C@H](C)[C@@H](C(=O)N[C@@H]([C@@H](C)O)C(=O)N[C@@H](CC(C)C)C(=O)[C@]1(CO1)C)NC(=O)[C@H]([C@@H](C)CC)N(C)C(=O)C [epoxomicin]
How it was run: as §1

[5] = compound: CCn1c(C(=O)N(C2CC2)C2CC2)cc2c3c(ncn3C)c(Nc3cc(C)n(C)n3)nc21
How it was run: as §1

[6] = compound: CCn1cc(-c2ccnc3[nH]c(-c4cccc(CN(C)C)c4)cc23)c(-c2ccc(NC(=O)N(C)C)cc2)n1
How it was run: as §1

[7] = compound: CN(C)CC(=O)Nc1ccc2[nH]c(=O)c3ccccc3c2c1
How it was run: as §1

[8] = compound: CN(CCOC1=CC=C(C=C1)C[C@H]2C(=O)NC(=O)S2)C3=CC=CC=N3 (racemic) [rosiglitazone]
How it was run: as §1

[9] = compound: CN1C2=C(C3=C1C(=O)N(N=C3)CC4=CC(=CC=C4)N)SC(=C2)S(=O)C
How it was run: as §1

[10] = compound: CN1CCC(CNc2ccc3ncc(-c4cccc(OC(F)(F)F)c4)n3n2)CC1
How it was run: as §1

[11] = compound: CN1CCN(CCOc2cc(OC3CCOCC3)c3c(Nc4c(Cl)ccc5c4OCO5)ncnc3c2)CC1 [saracatinib]
How it was run: as §1

[12] = compound: CN1CCN(c2nc(C3=C(c4c[nH]c5ccccc45)C(=O)NC3=O)c3ccccc3n2)CC1 [sotrastaurin]
How it was run: as §1

[13] = compound: CN1CC[C@H](c2c(O)cc(O)c3c(=O)cc(-c4ccccc4Cl)oc23)[C@H](O)C1 [alvocidib]
How it was run: as §1

[14] = compound: CN1CCc2c(c3ccccc3n2Cc2ccc(C(=O)NO)cc2)C1 [Tubastatin A]
How it was run: as §1

[15] = compound: CNC(=O)C1=CC=CC=C1NC2=NC(=NC=C2Cl)NC3=C(C=C(C=C3)N4CCOCC4)OC
How it was run: as §1

[16] = compound: CNC(=O)c1ccc(Nc2ncc(C(F)(F)F)c(NCc3nccnc3N(C)S(C)(=O)=O)n2)cc1 [defactinib]
How it was run: as §1

[17] = compound: CNCc1ccc(-c2[nH]c3cc(F)cc4c3c2CCNC4=O)cc1 [rucaparib]
How it was run: as §1

[18] = compound: CNc1nc(-c2ccc3c(N)n[nH]c3c2)cc(N2C[C@@H](C(=O)NC3CCCCC3)CC[C@H]2C)n1
How it was run: as §1

[19] = compound: COC(=O)N[C@@H](C)CNc1nccc(-c2cn(C(C)C)nc2-c2cc(Cl)cc(NS(C)(=O)=O)c2F)n1 [encorafenib]
How it was run: as §1

[20] = compound: COC(=O)[C@H](CCSC)NC(=O)C1=C(C=C(C=C1)NC[C@H](CS)N)C2=CC=CC=C2
How it was run: as §1

Measured: log2 fold change

SLC29A2 (UniProt Q14542)
inactive: [1] 0.085 | [2] 0.083 | [3] -0.024 | [4] -0.009 | [5] -0.084 | [6] -0.177 | [7] -0.014 | [8] -0.048 | [9] 0.023 | [10] 0.214 | [11] 0.043 | [12] 0.012 | [13] 0.093 | [14] 0.017 | [15] -0.094 | [16] -0.047 | [17] -0.102 | [18] 0.141 | [19] 0.006 | [20] 0.069

SLC35E1 (UniProt Q96K37)
inactive: [1] -0.166 | [2] -0.097 | [3] -0.011 | [4] -0.037 | [5] 0.137 | [6] -0.012 | [7] 0.049 | [8] 0.04 | [9] 0.081 | [10] 0.051 | [11] -0.042 | [13] 0.057 | [14] 0.001 | [15] -0.056 | [16] -0.01 | [17] -0.066 | [18] 0.027 | [19] 0.115 | [20] 0.049

SLC6A8 (UniProt P48029)
inactive: [1] 0.053 | [2] 0.092 | [3] -0.12 | [4] -0.007 | [5] -0.068 | [6] -0.154 | [7] 0.077 | [8] -0.051 | [9] -0.064 | [10] -0.031 | [11] 0.131 | [12] 0.055 | [13] -0.079 | [14] -0.056 | [15] -0.085 | [16] 0.014 | [17] -0.048 | [18] -0.02 | [19] 0.027 | [20] 0.127

SLC4A7 isoform 7 (UniProt Q9Y6M7)
inactive: [1] 0.07 | [2] 0.039 | [3] 0.127 | [4] 0.011 | [5] -0.037 | [7] 0.041 | [8] -0.021 | [9] 0.077 | [11] -0.066 | [12] 0.043 | [13] 0.147 | [14] 0.183 | [15] -0.005 | [16] 0.015 | [17] 0.145 | [18] 0.077 | [19] -0.026 | [20] -0.048

SLC25A11 (UniProt Q02978)
inactive: [1] 0.025 | [2] 0.063 | [3] -0.05 | [4] 0.01 | [5] 0.003 | [6] -0.011 | [7] -0.033 | [8] -0.005 | [9] -0.008 | [10] 0.08 | [11] 0.057 | [12] 0.043 | [13] 0.011 | [14] -0.015 | [15] -0.003 | [16] 0.011 | [17] 0 | [18] -0.042 | [19] 0.004 | [20] -0.002

SLC27A2 (UniProt O14975)
inactive: [1] -0.094 | [3] 0 | [4] -0.05 | [6] -0.064 | [7] 0.016 | [9] -0.092 | [11] 0 | [12] 0.005 | [14] -0.015 | [15] 0.144 | [16] -0.006 | [17] 0.056 | [19] 0.015 | [20] -0.034
active: [2] -0.408 | [5] 0.277 | [10] 0.313 | [18] 0.333

SLC25A32 (UniProt Q9H2D1)
inactive: [1] 0.053 | [2] 0.043 | [3] -0.051 | [4] -0.069 | [5] -0.001 | [6] -0.006 | [7] -0.027 | [8] 0.032 | [9] -0.077 | [10] 0.052 | [11] 0.09 | [12] 0.021 | [13] 0.019 | [14] -0.017 | [15] -0.017 | [16] -0.009 | [17] -0.052 | [18] -0.029 | [19] 0.039 | [20] 0.027

SLC25A40 (UniProt Q8TBP6)
inactive: [1] 0.029 | [2] 0.069 | [3] -0.027 | [4] 0.046 | [5] -0.044 | [6] -0.085 | [7] 0.033 | [8] -0.002 | [9] -0.03 | [10] 0.051 | [11] 0.037 | [12] 0.072 | [13] 0.003 | [14] -0.01 | [15] -0.021 | [16] 0.026 | [17] -0.057 | [18] 0.016 | [19] 0.028 | [20] 0.029
